Experimental data published in publication PMC9474293.

Target: T1, CTCF DBD (wild type) (human) (UniProt P49711)
T1 sequence (looked up): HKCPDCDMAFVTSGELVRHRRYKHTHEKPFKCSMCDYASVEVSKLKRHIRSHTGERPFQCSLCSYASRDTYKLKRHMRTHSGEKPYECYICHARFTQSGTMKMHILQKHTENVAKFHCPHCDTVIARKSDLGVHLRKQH
Experiment: EMSA
Settings: 0.1 mM Zn2+; EMSA: 0.2 uM DNA, 0-2 uM protein, 20 mM Tris-HCl pH 8.0, 150 mM NaCl, 0.1 mM ZnCl2, 1 mM DTT, 30 min RT; 12% native PAGE in 0.5x TBE; recombinant protein; residues 322-460; label: none (SYBR Safe stain)

## CTGCTGCCAGTAGAGGGCACACTTA (double strand) [C-MYC probe]
  binding result: binds

## TCTCCTATGACTCGTCCAT (double strand) [NC probe (control motif)]
  binding result: no binding

Construct, isoform or probe ends are uncertain for at least one entry. A negative result means that nothing was seen under these conditions. At least one verdict rests on a figure or table, not on a statement of the authors. Protein sequences can lack the tags named with them.
